{
  "source": "paper PMC5493369",
  "binders": {"B1": {"name": "Apoferritin (protein, UniProt P02791 1-175)", "chain": "MSSQIRQNYSTEVEAAVNRLVNLYLRASYTYLSLGFYFDRDDVALEGVCHFFRELAEEKREGAERLLKMQNQRGGRALFQDLQKPSQDEWGTTLDAMKAAIVLEKSLNQALLDLHALGSAQADPHLCDFLESHFLDEEVKLIKKMGDHLTNIQRLVGSQAGLGEYLFERLTLKHD"}},
  "target": "Apoferritin (UniProt P02791)",
  "assay": "native gel or EMSA; blue native PAGE (BN-PAGE); proteins at 0.3 mg/ml in 10 mM Tris pH 7.5, 50 mM NaCl; run at 4°C with Coomassie G-250 in the cathode buffer; both purified",
  "note": "These are yes or no findings as the source states them, for the method shown. Some results given as binding are weak or reduced against the parent protein; the word gives no strength.",
  "data": [
    {"binder": "B1", "values": [
      {"measurement": "binding", "result": "binds"}
    ]}
  ]
}
